Among the data in patent US20210206820A1 (Purdue Research Foundation, priority 2018, published 2021) are BV/TV values, retold here.

This assay concerns fracture callus of fractured femur. Put plainly: Femur fracture model, microCT of the fracture callus (BV/TV, TbTh, BV, TbSp). Conditions: 4 weeks, daily sc, various concentrations from 1 to 100 nmol/day. The assay is classed as in vivo, Swiss Webster mice. The text has this:
All in vivo data included herein are from swiss Webster mice. All mice received an osteotomy on their right femur and received subcutaneous drug administration daily for either 2, 3 or 4 weeks, as indicated, for each compound. 1× concentration represents 1 nmol/day, 10× represents 10 nmol/day, 100× represents 100 nmol/day most studies have an n of 5.
The term “BV/TV” means the bone volume divided by total volume of the 100 thickest micro CT slices of the fracture callus.
The term “TbTh” means the trabecular thickness of the 100 thickest micro CT slices of the fracture callus.
The term “[…]” means the overall bone volume of the 100 thickest micro CT slices of the fracture callus. […]
The targeted conjugates were synthesized using standard Fmoc solid-phase peptide synthesis, as described above. […] Expression levels of ALP, RUNx2 (transcription factor for osteoblast differentiation), osterix (OSX), osteopontin (OPN), collagen 1A (Col-1A), OPG, RANKL, sclerostin gene (SOST), and OC were quantified via quantitative reverse transcription polymerase chain reaction (RT-qPCR). […] Fracture healing was assessed using microCT (Scanco Medical Ag). Morphometric parameters were quantified in the 100 widest slices of the fracture callus. Trabecular thickness (TbTh), trabecular spacing (TbSp), total volume (TV), and volume of calcified callus (BV) were calculated. […]

In the case of “TP508 D10: Thrombin fragment TP508 conjugated with 10 aspartate acids, SEQ ID NO: 12 DDDDDDDDDDAGYKPDEGKRGDACEGDSGGPFV (TP 508_D10)”, the BV/TV result was “dose dependent manner”.
